PubChem BioAssay AID720505, Drosophila RNAi Screening Center – 2013
The screen tested about 20,000 reagents; shown is an unselected part of those with a known target gene and a result. Over the whole deposit, about 2,100 (10%) got an active call. 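Raw plate signals without normalisation; calls rest on control-based scores that were not deposited; replicate 2 separates called from uncalled poorly.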 Reagents against one gene are numbered here. No sequences are given here. Not stated in the record: the amount of reagent, the time to read-out.

- Aim: 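Genes needed for store-operated calcium entry in fly cells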 (primary screen)
- Cell system: Drosophila S2R+ cells
- Reagents: long dsRNA against Drosophila genes
- Treatment: thapsigargin (2 µM) in calcium-free buffer to empty internal stores, then 2 mM calcium added back
- Measurement: 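Fluo-4 signal in 384-well plates read on a FLIPR after thapsigargin (2 µM, calcium-free) store depletion and 2 mM calcium add-back; unnormalised mean endpoint per well; screen run twice, selected wells retested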
- Scale: calcium signal: higher = more calcium entry after store depletion
- Call rule: 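About 1500 genes called as lowering calcium entry, by varying amounts, judged against per-plate control wells with STIM1 as positive and Rho1 as negative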
- Meaning of the calls: active = called as lowering calcium entry; inactive = not called

| Target gene | dsRNA no. | calcium signal, replicate 1 | calcium signal, replicate 2 | outcome |
| --- | --- | --- | --- | --- |
| Cpr78Ca | 1 | 61 | 135 | active |
| CG33099 | 1 | 203 | 295 | inactive |
| Acn | 1 | 140 | 118 | inactive |
| dpr6 | 1 | 102 | 110 | inactive |
| dpr6 | 2 | 104 | 122 | inactive |
| CG32022 | 1 | 112 | 85.7 | inactive |
| CG13810 | 1 | 67.4 | 119 | inactive |
| CG13810 | 2 | 114 | 90.3 | inactive |
| CG14568 | 1 | 59.2 | 170 | active |
| Vha100-3 | 1 | 127 | 123 | inactive |
| CG12983 | 1 | 99.1 | 94.4 | inactive |
| CG10761 | 1 | 282 | 141 | inactive |
| nmdyn-D7 | 1 | 144 | 93 | inactive |
| Gagr | 1 | 138 | 80.7 | inactive |

Continued (3 carried over from the part before).
| Target gene | dsRNA no. | calcium signal, replicate 1 | calcium signal, replicate 2 | outcome |
| --- | --- | --- | --- | --- |
| CG10761 | 1 | 282 | 141 | inactive |
| nmdyn-D7 | 1 | 144 | 93 | inactive |
| Gagr | 1 | 138 | 80.7 | inactive |
| CG14695 | 1 | 137 | 100 | inactive |
| aop | 1 | 142 | 133 | inactive |
| aop | 2 | 108 | 141 | inactive |
| CG33143 | 1 | 79.4 | 142 | inactive |
| CG33143 | 2 | 95.3 | 132 | inactive |
| Nach | 1 | 178 | 138 | inactive |
| CG34160 | 1 | 214 | 123 | inactive |
| CG7386 | 1 | 115 | 95.4 | inactive |
| Kdm2 | 1 | 120 | 165 | inactive |
| Prosbeta5R1 | 1 | 89.1 | 102 | inactive |
| Syt7 | 1 | 127 | 151 | inactive |
| Syt7 | 2 | 79.2 | 131 | inactive |
| CG11679 | 1 | 131 | 116 | inactive |
| CG13455 | 1 | 81.9 | 126 | inactive |
| CG8064 | 1 | 183 | 165 | inactive |
| Rack1 | 1 | 135 | 111 | inactive |
| CG31437 | 1 | 5772 | 151 | inactive |
| Amnionless | 1 | 159 | 147 | inactive |
| mip130 | 1 | 120 | 165 | inactive |
| CG43339 | 1 | 113 | 116 | inactive |
